{
  "source": "patent US9833431B2",
  "about": "“Pharmaceutical combinations for the treatment of cancer” (Pitney Pharmaceuticals Pty Limited, priority 2013, dated 2017)",
  "key": {"LNCaP": {"system": "LNCaP", "assay": "SRB cytotoxicity assay, LNCaP cells", "assay_type": "cell-based, human", "conditions": "LNCAP-1 / LNCaP cells; 72 h; FIG. 20", "method": "All cell lines described herein were purchased from ATCC. […] Control cultures were treated with ethanol alone."}, "HOSE": {"system": "HOSE", "assay": "SRB cytotoxicity assay, HOSE non-malignant control cells", "conditions": "72 h"}, "SKOV-1": {"system": "SKOV-1", "assay": "SRB cytotoxicity assay, SKOV-1 cells", "conditions": "72 h"}, "OVCAR-3": {"system": "OVCAR-3", "assay": "SRB cytotoxicity / proliferation assay, OVCAR-3 cells", "conditions": "72 h; for A) Single treatment, one symbol per experiment: OVCAR-3; for Interaction of the drug with MPL (synergy), in words: OVCAR-3 cells"}, "[1]": {"conditions": "HOSE non-malignant control cells, concentrations as stated in the figure"}},
  "note": "“Also recorded” adds a separate entry of the source. At least one compound was matched to its structure with a doubt left.",
  "data": [
    {"smiles": "CC(C)C(=O)Nc1ccc([N+](=O)[O-])c(C(F)(F)F)c1", "note": "[Flutamide]", "values": [
      {"measurement": "Interaction of the drug with MPL (synergy), in words", "setting": "LNCaP", "result": "synergistic interaction; also recorded: synergistically inhibits"},
      {"measurement": "Interaction of the drug with MPL (synergy), in words", "setting": "HOSE; [1]", "result": "but not HOSE cells; also recorded: without displaying a synergistic interaction"}
    ]},
    {"smiles": "CN(C)c1ccc(O)c2c1C[C@H]1C[C@H]3[C@H](N(C)C)C(O)=C(C(N)=O)C(=O)[C@@]3(O)C(O)=C1C2=O", "note": "[Mino, minocycline]", "values": [
      {"measurement": "A) Single treatment, one symbol per experiment", "setting": "SKOV-1; SKOV-1, Mino (10 μM)", "result": "✓✓✓"},
      {"measurement": "Interaction of the drug(s) with MPL (synergy), in words", "setting": "SKOV-1; SKOV-1 cells, MPL 5 μM, FIG. 28", "result": "synergistic cytotoxic effect"},
      {"measurement": "A) Single treatment, one symbol per experiment", "setting": "OVCAR-3; Mino (5 μM)", "result": "✓✓✓✓"},
      {"measurement": "A) Single treatment, one symbol per experiment", "setting": "OVCAR-3; Mino (10 μM)", "result": "✓✓✓"},
      {"measurement": "Interaction of the drug with MPL (synergy), in words", "setting": "OVCAR-3; concentrations as stated in the figure", "result": "synergistic cytotoxic effect; also recorded: synergistic interaction"},
      {"measurement": "Interaction of the drug with MPL (synergy), in words", "setting": "OVCAR-3; MPL (2.5 μM), FIG. 28", "result": "synergistic interaction"},
      {"measurement": "Interaction of the drug with MPL (synergy), in words", "setting": "HOSE; HOSE cells, MPL (2.5 μM), FIG. 28", "result": "but not HOSE cells"},
      {"measurement": "Interaction of the drug with MPL (synergy), in words", "setting": "HOSE; [1]", "result": "synergistic cytotoxic effect; also recorded: synergistic interaction"}
    ]}
  ]
}
